# From article PMC7819943, “Rice protein-binding microarrays: a tool to detect cis-acting elements near promoter regions in rice”
# By UniProt entry, the sequences of proteins in these tests, tags left out.
# UniProt Q0JBA9, entry or part of it: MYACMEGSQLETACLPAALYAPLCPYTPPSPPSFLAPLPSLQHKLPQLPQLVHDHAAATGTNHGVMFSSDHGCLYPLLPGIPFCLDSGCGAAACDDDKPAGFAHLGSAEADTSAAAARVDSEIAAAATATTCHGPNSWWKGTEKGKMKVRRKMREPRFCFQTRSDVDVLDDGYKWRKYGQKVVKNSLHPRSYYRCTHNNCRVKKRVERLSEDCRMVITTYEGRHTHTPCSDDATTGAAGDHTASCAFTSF
# Some of the results follow.
# Molecular target: OsWRKY34 (Oryza sativa, UniProt Q0JBA9 1-250)
# Test: protein-binding microarray (RPBM); PBS, 2% BSA, 51.3 ng/ul salmon testes DNA, 50 uM zinc acetate, 200 nM TF, 25 C, 1 h; high values mean tight binding
# Conditions: protein: recombinant; tags: N-terminal polyhistidine and DsRed monomer fusion (pET32a); label: CyDye5-dUTP incorporated in the synthesized complementary strand; 3' TTTTT single-stranded linker to array surface; dsDNA, one strand shown
# Summary of the method: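 Using Ni–NTA, transcription factors fused N-terminally to polyhistidine and DsRed were purified after expression in E. coli BL21-CodonPlus. These were incubated at 200 nM with a blocked, double-stranded custom Agilent array for 1 h at 25 °C in a buffer containing 50 µM zinc acetate, and the array was washed. The binding signal is per-feature fluorescence intensity (arbitrary units) on an Axon 4000B scanner.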
row,Sequence,binding signal
1,CCAATCACCGCCCTCCACGTGGCAAATCTCGCTTCGACTCCGGAGTCACCTAGTGCAG,9100 fluorescence intensity (a.u.)
2,AACACCGTTCCTCCGCCGCGCCGTCATTGCCACCGGCCTCCGGAGTCACCTAGTGCAG,9730 fluorescence intensity (a.u.)
3,ACCTACCTCTCTCGTTTTTCGCCCATTTTCCCAACCCACCCGGAGTCACCTAGTGCAG,10600 fluorescence intensity (a.u.)
4,ACGCGCCAACTCCCAACTGCTACGATCTTTTGGTAGCCTCCGGAGTCACCTAGTGCAG,8480 fluorescence intensity (a.u.)
5,GTACATAATTCTATCGTCCTGTATTTTCCCCATCTCTATCCGGAGTCACCTAGTGCAG,9550 fluorescence intensity (a.u.)
6,ACACCCGTCCGTCCCGTCTCGTTCTGCGCCGTCTCGCCGGCGGAGTCACCTAGTGCAG,11100 fluorescence intensity (a.u.)
7,GTGTTGGTGGCTCTGGCTGCGTCGACGTGCGCAGGGCGTTCGGAGTCACCTAGTGCAG,8050 fluorescence intensity (a.u.)
8,CGTGGACCGTTGGCTCGTGGGCCCACCTGTCAAAATACTCCGGAGTCACCTAGTGCAG,8060 fluorescence intensity (a.u.)
9,CTGGTGATTCCATCCAGCCGTCCACATGGTCATCGCTCATCGGAGTCACCTAGTGCAG,8040 fluorescence intensity (a.u.)
10,GATGTGGTGGGGTGACATGACGCCCGGCGTCCCAATCATTCGGAGTCACCTAGTGCAG,8230 fluorescence intensity (a.u.)
11,TCTGCCTGCTGCTCTGTTCGTCGGTTCGTGGTTTGTACGACGGAGTCACCTAGTGCAG,9690 fluorescence intensity (a.u.)
12,GTTTCTGCGCTCAACTTTGATCGTCCGTCTTATTTAAATTCGGAGTCACCTAGTGCAG,11700 fluorescence intensity (a.u.)
13,AGTAGCAATTACCCACGTGGCATCCACCGCTGTTGTTTCCCGGAGTCACCTAGTGCAG,10700 fluorescence intensity (a.u.)
14,TTGGTCGTCTAATTCATGCTGACCACTAATTAAGTTACTGCGGAGTCACCTAGTGCAG,8040 fluorescence intensity (a.u.)
15,ACCCATATGTCAGCATGCCACGTCAGCCTCTTCTCTATTTCGGAGTCACCTAGTGCAG,10100 fluorescence intensity (a.u.)
16,CCTCGCCGGAGCCGCCGCCGTATCGTTCTTCTCCCACTCGCGGAGTCACCTAGTGCAG,10100 fluorescence intensity (a.u.)
17,ATTCAGTGGATCCTGCTGCTCAAACTTTGCTGACTGAATTCGGAGTCACCTAGTGCAG,8820 fluorescence intensity (a.u.)
18,GCCTGACAGCCATATCCATTTGGAAGCTACTACTACTACACGGAGTCACCTAGTGCAG,8280 fluorescence intensity (a.u.)
19,TTTCTTGCTCTTTTCATTTGCCACTTCTCTGTTCTCGTGTCGGAGTCACCTAGTGCAG,12800 fluorescence intensity (a.u.)
20,GACTCACCATACCTGCAACCGGCTAGATGCATCGACTCCTCGGAGTCACCTAGTGCAG,9790 fluorescence intensity (a.u.)
21,TGGATTGTCTATATAACGAGACCCATTGCAATGCTTCATCCGGAGTCACCTAGTGCAG,8470 fluorescence intensity (a.u.)

# In a second layout: results already given.
row	Sequence	binding signal
9	CTGGTGATTCCATCCAGCCGTCCACATGGTCATCGCTCATCGGAGTCACCTAGTGCAG	8040 fluorescence intensity (a.u.)
10	GATGTGGTGGGGTGACATGACGCCCGGCGTCCCAATCATTCGGAGTCACCTAGTGCAG	8230 fluorescence intensity (a.u.)

# Going on with the list:

row,Sequence,binding signal
1,CCCCAACTCCCTAGCTACTCCCTGTCCCGGTTCTATAAATCGGAGTCACCTAGTGCAG,10300 fluorescence intensity (a.u.)
2,TCTTTTCCTATCATTTGATTCATTGTTAAATATATTTTTACGGAGTCACCTAGTGCAG,8540 fluorescence intensity (a.u.)
3,GCTTCCTGCCTCTCCGCTCTCCATGTGCGTGCCACCAAATCGGAGTCACCTAGTGCAG,8650 fluorescence intensity (a.u.)
4,TCACATCACGATCGGCAACCTTATCTTGTCTCGAAACTGACGGAGTCACCTAGTGCAG,8700 fluorescence intensity (a.u.)
5,GTCAAACATTTTTAAAAAAGTCAACGGCGTTAAATATTTTCGGAGTCACCTAGTGCAG,14500 fluorescence intensity (a.u.)
6,GCAGAGAAGCACATTTTTTTTCTGGCACATTATTACTCATCGGAGTCACCTAGTGCAG,9360 fluorescence intensity (a.u.)
7,GTGATTGGTTGGGAGGAGAATGTTGGTAGAGAAGTTGTTACGGAGTCACCTAGTGCAG,8100 fluorescence intensity (a.u.)
8,CAGCTTCGACATTCACATAATATCATCTTTCGGAATTTGTCGGAGTCACCTAGTGCAG,8360 fluorescence intensity (a.u.)
9,GCCCACTACTACCACTTCGCCTCCTTCCCATCGAGGGCGACGGAGTCACCTAGTGCAG,8500 fluorescence intensity (a.u.)
10,ATATTTCTTTTCGTCGCTTTTATGTTCCTTTTCATGATCTCGGAGTCACCTAGTGCAG,8060 fluorescence intensity (a.u.)
11,CCCCACGACGCCCAGCTCGACCTCACCCGCGGCATCCCAACGGAGTCACCTAGTGCAG,9720 fluorescence intensity (a.u.)
12,CACCACCTCTCCACCGCTATAAAATCGCCAACTCGTCTTCCGGAGTCACCTAGTGCAG,8990 fluorescence intensity (a.u.)
13,TAACCCGTTCGCTATCCTTGTTTCTATTGCATTTTATCTCCGGAGTCACCTAGTGCAG,15400 fluorescence intensity (a.u.)
14,GCCTTTTCTTGACTCGGTGGTGGGAGGGGAATTTTCGTGACGGAGTCACCTAGTGCAG,27000 fluorescence intensity (a.u.)
15,GCGCTAGGGGCGGTATTTAATAGTACGTCTTATAGATGGTCGGAGTCACCTAGTGCAG,8060 fluorescence intensity (a.u.)
16,AGACATGGTTTTATTCTCTTTCCTCATTTATTCACTTGCCCGGAGTCACCTAGTGCAG,9650 fluorescence intensity (a.u.)
17,CCGACAGCTTGCTCGCCCGCACGCCGGCCTGATCGTTGACCGGAGTCACCTAGTGCAG,14100 fluorescence intensity (a.u.)
18,TAGCCAGAGACTATCCCGCCGTATTATTTCGACCAAATTCCGGAGTCACCTAGTGCAG,8090 fluorescence intensity (a.u.)
19,TTTTGGTAGCGGCCTTAATTAGTTCCAGATCTCCCAAGTGCGGAGTCACCTAGTGCAG,8980 fluorescence intensity (a.u.)
20,TCTCCGCCCGCTCGCCGCCGCCGCCGCCCGCGTCGACTCGCGGAGTCACCTAGTGCAG,8320 fluorescence intensity (a.u.)
21,GAGCAACATCACGCGAGGCATTTAACTATTTGTCACTTTTCGGAGTCACCTAGTGCAG,10400 fluorescence intensity (a.u.)
